This note sets out measurements from PubChem BioAssay AID212 (DTP/NCI, 2004).

In this experiment the test system is BDF1 mice, colon carcinoma 38 sc, T/C %. In words: NCI In Vivo Anticancer Drug Screen. Data for tumor model Colon Carcinoma 38 (subcutaneous) in B6D2F1 (BDF1) mice. To be noted: T/C endpoint: median tumor weight (est.), higher T/C = larger tumour; for T/C: evaluated on day 20. An outline of the steps: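 Compound antitumor activity was assessed in mice carrying transplantable tumors. Survival or tumor size was recorded, and each value is the treated-group measurement divided by that of the vehicle-treated control group.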

[1] abbreviates: dose: 25.0 mg/kg/injection, schedule: Q07DX002 (ip), vehicle: saline.
Where [2] appears, read: dose: 50.0 mg/kg/injection, schedule: Q07DX002 (ip), vehicle: saline.
The mark [3] stands for this setting: dose: 100.0 mg/kg/injection, schedule: Q07DX002 (ip), vehicle: Klucel (hydroxypropylcellulose) (HPC).
The mark [4] stands for this setting: dose: 50.0 mg/kg/injection, schedule: Q07DX002 (ip), vehicle: saline with Tween-80.
[5] abbreviates: dose: 200.0 mg/kg/injection, schedule: Q07DX002 (ip), vehicle: saline with Tween-80.
Where [6] appears, read: dose: 800.0 mg/kg/injection, schedule: Q07DX002 (ip), vehicle: saline with Tween-80.
Setting [7] is: dose: 400.0 mg/kg/injection, schedule: Q07DX002 (ip), vehicle: saline with Tween-80.
[8] abbreviates: dose: 100.0 mg/kg/injection, schedule: Q07DX002 (ip), vehicle: saline with Tween-80.
[9] abbreviates: dose: 12.5 mg/kg/injection, schedule: Q07DX002 (ip), vehicle: Klucel (hydroxypropylcellulose) (HPC).
[10] abbreviates: dose: 50.0 mg/kg/injection, schedule: Q07DX002 (ip), vehicle: Klucel (hydroxypropylcellulose) (HPC).
Setting [11] is: dose: 6.25 mg/kg/injection, schedule: Q07DX002 (ip), vehicle: Klucel (hydroxypropylcellulose) (HPC).
Where [12] appears, read: dose: 25.0 mg/kg/injection, schedule: Q07DX002 (ip), vehicle: saline with Tween-80.
Setting [13] is: dose: 12.5 mg/kg/injection, schedule: Q07DX003 (ip), vehicle: Klucel (hydroxypropylcellulose) (HPC).

The list is a part of this screen's results and no random one: it gathers tests that were run many times, whatever their T/C, doses with no T/C, and many T/C values between a quarter and a half above the control. Further doses and runs are listed elsewhere. T/C: endpoint of the treated group in % of that of the vehicle group. Schedule codes are those of the source, read here as Q, the interval in days (D) or hours (H), X, the number of doses. Some T/C values carry the count of animals alive at the toxicity check (mostly the fifth day); without a count, all were alive then. Some entries give survivors of the animals treated and no T/C: the source files T/C as zero there, which appears to mark a toxic dose or a test without result, not a measured value. Survivors were counted at the toxicity check, usually on the fifth day, unless a day is given; later deaths do not show. Some doses were run more than once; the values are given in rising order.

Consider `O=[N+]([O-])c1nccn1CC(O)CO` (stereo unspecified), for which the T/C is 127 % of control under setting [1]; 129 % of control under setting [2]; 136 % of control (dose: 200.0 mg/kg/injection, schedule: Q07DX002 (ip), vehicle: saline); 149 % of control [9 of 10 alive on day 20] (dose: 400.0 mg/kg/injection, schedule: Q07DX002 (ip), vehicle: saline).
`CN(C)S(=O)(=O)CCNC(=O)N(CCCl)N=O`: the survivor count was 2 of 10 on day 20 (dose: 30.0 mg/kg/injection, schedule: Q07DX002 (oral), vehicle: saline with Tween-80) and 4 of 10 on day 20 (dose: 41.67 mg/kg/injection, schedule: Q07DX002 (oral), vehicle: saline).
Take `CN(C(=S)S(=O)(=O)C12CC3CC(CC(C3)C1)C2)c1ccccc1`: the T/C under setting [3] was 148 % of control [9 of 10 alive on day 20].
As for `COc1cc([C@@H]2c3cc4c(c(O)c3C[C@H]3COC(=O)[C@@H]32)OCO4)cc(OC)c1OC`, the T/C (dose: 0.5 mg/kg/injection, schedule: Q07DX002 (ip), vehicle: saline) was 137 % of control.
As to `[O-][n+]1c(CN2CCCCC2)nc2cccc3c2c1-c1ccccc1-3`, the T/C by setting is: under setting [4], 147 % of control; under setting [5], 136 % of control. Under setting [6], the survivor count is given as 2 of 10 on day 20.
As for `COc1cc2cc3c4cc(OC)c(OC)cc4cc[n+]3c(C)c2cc1OC` (tested in a mixture with another compound), the T/C by setting is: (dose: 25.0 mg/kg/injection, schedule: Q07DX003 (ip), vehicle: saline) 148 % of control; (dose: 50.0 mg/kg/injection, schedule: Q07DX003 (ip), vehicle: saline) 131 % of control.
For `CN(C)CC(Cl)CCl` (stereo unspecified), the T/C under setting [2] is 130 % of control.
The same measure, in the same setting: the same measure for `CC[As](=O)(O)CC`: 126 % of control [9 of 10 alive on day 20].
`COc1cccc2c1C(=O)c1c(O)c3c(c(O)c1C2=O)C[C@@](O)(C(=O)CO)C[C@@H]3OC1CC(N)CC(C)O1` (stereo partly specified): the survivor count runs as follows: (dose: 6.0 mg/kg/injection, schedule: Q07DX002 (ip), vehicle: water) 6 of 10 on day 20; (dose: 12.0 mg/kg/injection, schedule: Q07DX002 (ip), vehicle: water) 0 of 10 on day 20.
Regarding `COc1ccc(S(=O)(=O)N/N=C/C(=O)O)cc1`, under setting [7], the survivor count was 3 of 10 on day 20.
Take `O=C(O[Si](Cc1ccccc1)(Cc1ccccc1)Cc1ccccc1)N(CCCl)CCCl`: the survivor count by setting is: under setting [8], 6 of 10 on day 20; under setting [5], 0 of 10 on day 20; under setting [7], 0 of 10 on day 20.
In the case of `Cc1ccc2c(c1)N=C(Nc1ccccc1)N=S2(C)=O` (stereo unspecified), under setting [8], the T/C was 127 % of control [7 of 10 alive on day 20]. Also, under setting [7], the survivor count is 6 of 10 on day 20.
As for `C=C1C(C)C2C(Cc3ccccc3)NC(=O)C23OC(=O)/C=C\CC(=O)CCC(C)C/C=C/C3C1O` (stereo unspecified), the survivor count under setting [9] was 5 of 10 on day 20; the survivor count (dose: 25.0 mg/kg/injection, schedule: Q07DX002 (ip), vehicle: Klucel (hydroxypropylcellulose) (HPC)) is given as 2 of 9 on day 20; the survivor count under setting [10] was 0 of 10 on day 20; the survivor count under setting [3] was 0 of 10 on day 20.
As for `O=Cc1ccc(C(Cl)(Cl)Cl)cc1`, the T/C under setting [4] was 149 % of control. Further, under setting [7], the survivor count is listed as 6 of 10 on day 20.
Take `CC1=C(O)C(=O)[C@@H]2O[C@@H]2C1=O`: the survivor count runs as follows: under setting [1], 3 of 10 on day 20; under setting [2], 0 of 10 on day 20; (dose: 100.0 mg/kg/injection, schedule: Q07DX002 (ip), vehicle: saline) 0 of 10 on day 20.
For `C=C(C)C(=NC(C)(C)C)Nc1ccccc1`, under setting [8], the T/C is 136 % of control [9 of 10 alive on day 20].
Take `CCCCCC[C@H]([C@H](C)O)n1cnc2c(N)ncnc21`: the T/C by setting is: under setting [11], 146 % of control; under setting [9], 144 % of control.
As to `CC1=C2CC(C)(C)/C=C\C(=O)/C(C)=C\C3=C[C@H](C)C[C@]3(O2)C1=O`, the T/C (dose: 12.0 mg/kg/injection, schedule: Q07DX002 (ip), vehicle: Klucel (hydroxypropylcellulose) (HPC)) was 145 % of control.
Turning to `COc1cc2c3c(cccc3c1)C(=O)N(CCN(C)C)C2=O`, the T/C (dose: 80.0 mg/kg/injection, schedule: Q07DX002 (ip), vehicle: saline with Tween-80) was 125 % of control. In addition, the survivor count (dose: 160.0 mg/kg/injection, schedule: Q07DX002 (ip), vehicle: saline with Tween-80) is recorded as 1 of 10 on day 20; the survivor count (dose: 320.0 mg/kg/injection, schedule: Q07DX002 (ip), vehicle: saline with Tween-80) was 0 of 10 on day 20 and 2 of 10 on day 20.
Turning to `O=S(=O)(c1ccccc1)N1CN2CCN(C2)C1`, the T/C reads like this: under setting [12], 125 % of control; under setting [4], 148 % of control [9 of 10 alive on day 20].
Consider `CC(C)CC(=O)NC(C(=O)NC(C(=O)NC(CC(C)C)C(O)CC(=O)NC(C)C(=O)NC(CC(C)C)C(O)CC(=O)O)C(C)C)C(C)C` (stereo unspecified), for which the T/C reads like this: under setting [9], 137 % of control [9 of 10 alive on day 20]; (dose: 400.0 mg/kg/injection, schedule: Q07DX002 (ip), vehicle: Klucel (hydroxypropylcellulose) (HPC)) 144 % of control.
As for `CN(C)C1C(=O)C(C(=O)NP(=O)(NCCCO)N(CCCl)CCCl)=C(O)C2(O)C(=O)C3=C(O)c4c(O)cccc4C(C)(O)C3CC12` (stereo unspecified), the survivor count under setting [6] was 0 of 10 on day 20.
With `COc1ccc(-c2cc(=O)c3cccc(CC(=O)O)c3o2)cc1`, under setting [7], the survivor count is 2 of 10 on day 20.
For `CS(=O)(=O)c1ncc(Br)cn1`, the T/C under setting [12] was 126 % of control.
As for `CCCCc1ccc2nc(NC(=O)OC)[nH]c2c1`, the T/C under setting [8] is 126 % of control. Besides, under setting [7], the survivor count is 6 of 10 on day 20.
For the compound `C[C@H](N)C(=O)N[C@@H]1[C@H]2C(=C(O)C[C@@H](O)[C@@H]2O)C(=O)O[C@@H]1C`, the T/C was 132 % of control (dose: 75.0 mg/kg/injection, schedule: Q07DX002 (ip), vehicle: saline) and 147 % of control [9 of 10 alive on day 20] (dose: 600.0 mg/kg/injection, schedule: Q07DX002 (ip), vehicle: saline).
Regarding `CNC(=O)OCc1c(COC(=O)NC)c(C)n(-c2ccc(OC)cc2)c1C`, the T/C by setting is: under setting [11], 134 % of control; under setting [9], 125 % of control; under setting [10], 128 % of control.
For the compound `CN(Cc1cnc2nc(N)nc(N)c2n1)c1c(Cl)cc(C(=O)NC(CCC(=O)O)C(=O)O)cc1Cl` (stereo unspecified), under setting [13], the T/C is 135 % of control and the survivor count was 2 of 10.
Regarding `NC(Cc1ccc(N(CCCl)Cc2ccccc2)cc1)C(=O)O` (stereo unspecified), the T/C (dose: 6.25 mg/kg/injection, schedule: Q07DX002 (ip), vehicle: distilled water + Tween-80) is 135 % of control.
